Small-molecule microarray binding calls

From ROBIN, a set of small-molecule microarray screens (doi:10.1002/anie.202211358).

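The test is a small-molecule microarray: each compound is printed twice on a reactive slide, and binding shows as fluorescence of the labelled oligonucleotide after washing. For the PreQ1, TPP and SAM-II riboswitches the laboratory earlier reported (doi:10.1038/s41467-019-09493-3) 1 µM RNA, 2 h, and a rule that included a mean Z-score above 3 (spot signal-to-noise against the whole library), a score well above that on a control array, and duplicate spots agreeing (coefficient of variation under 100). The data file gives only the calls; its cut-offs may differ, and compounds hitting several targets are kept. The calls come from the array alone, and fixing a compound to the slide can hide its binding.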
“1” means called a hit, “0” means screened and not called a hit.
Compounds were drawn at random from those tested, without regard to their results.

Targets (5′ to 3′):
PreQ1: PreQ1 riboswitch RNA pseudoknot, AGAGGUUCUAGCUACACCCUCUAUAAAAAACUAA. From B. subtilis. About 24,000 compounds screened, about 170 hits.

compound,PreQ1
Brc1ccc(Nc2nc3ccccc3n3cnnc23)cc1,0
CCC(NC(=O)c1cn([C@H]2CC[C@@H](N)CC2)nn1)c1ncnn1CC (some centres undefined),0
COC(=O)c1ccc(Nc2nc(-c3ccccc3)nc3ccccc23)cc1,0
CNc1ccc(/N=N/c2cc[n+]([O-])cc2C)cc1C,0
Cc1ccc(CCNC2CCN(c3ncnc4[nH]cnc34)CC2)s1,0
Cc1cc(N2CCN(C(=O)Nc3ccnn3C3CCCCC3)CC2)nc(N)n1,0
O=C(NCC(O)c1ccccc1C(F)(F)F)c1c[nH]nc1-c1ccccc1 (centres undefined),0
CCOC(=O)C1=C(C)OC(N)=C(C#N)C1c1ccc(C(C)C)cc1 (centres undefined),0
CCOc1ccc(C2C(C#N)=C(N)Oc3[nH]cnc(=O)c32)cc1 (centres undefined),0
Cn1c(-c2ccccc2)cnc1NCc1ccccc1,0
CSc1cccc(NC(=O)N2CCN(C)CC2)c1,0
Cc1c(CO)c2ccccc2n1Cc1ccc(Br)cc1,0
NS(=O)(=O)c1ccc(NC2=CC(=O)c3ccccc3C2=O)cc1,0
Cc1ccnc(NCc2ccc(Br)cc2)c1,0
COCc1c(Br)c(C)nc2oc(C(=O)c3cccc(OC)c3)c(N)c12,0
Cn1cc(SCC(=O)NCc2cc3n(n2)CCNC3)c2ccccc21,0
CC1CCCCN1CC(O)COc1ccccc1C(C)(C)C (centres undefined),0
CCN(CCOc1ccc(Cl)cc1)CC1(O)CCCNC1 (centres undefined),0
COCCSc1n[nH]c(N)n1,0
OC(COc1cccc(-c2nnco2)c1)CN1CCN(c2ccccc2F)CC1 (centres undefined),0
COc1ccc(F)cc1NC(=O)NC1(CO)CCCCCC1,0
Cc1noc(N)c1C(=O)Nc1ccc2c(c1)OCCO2,0
Cn1c(=O)c2c(nc(NCCO)n2CCCc2ccccc2)n(C)c1=O,0
O=C(c1csc(Cc2ccccc2)n1)N1Cc2cnn(CCO)c2C1,0
NC(=O)c1ccccc1NC(=O)COc1ccc(Cl)cc1,0
COc1ccc(Cl)cc1Nc1cc(C)nc2nc(-c3ccccc3)nn12,0
COC(=O)c1sc2nc3c(cc2c1N)CC(C)CC3 (centres undefined),0
COc1ccccc1OCC(O)Cn1c(C2CC(=O)N(c3ccc(F)cc3)C2)nc2ccccc21 (centres undefined),0
CCOc1ccc(CNc2ccc(N3CCN(Cc4ccccc4)CC3)cc2)cc1,0
COc1ccc2ccccc2c1CNCCNC(=O)c1nonc1N,0
O=C(NCCC1CN(Cc2ccc(Cl)nc2)CCO1)C1CNC1 (centres undefined),0
CCOC(=O)c1c(N)sc2c1CCN(C)C2,0
CCc1ccc(CCOc2ccc(CC3SC(=O)NC3=O)cc2)nc1 (centres undefined),0
CC(=O)c1c(C)nn(CC(O)Cn2c3c(c4cc(C)ccc42)CCCC3=O)c1C (centres undefined),0
COc1cc(C(C)=O)ccc1OCC(O)CN1CCN(c2cc(Cl)ccc2C)CC1 (centres undefined),0
OC(COc1cccc2ccccc12)CN1CCN(c2ccccc2Cl)CC1 (centres undefined),0
CSc1n[nH]c(N)c1-c1nc(-c2ccc(C)cc2)no1,0
CC(=O)N1CCN(Cc2ccc(-c3ccc(C)c(Cl)c3)o2)CC(O)C1 (centres undefined),0
CCn1nc(C(=O)O)c2c1CCC(NCC(=O)Nc1ccc(C)cc1F)C2 (centres undefined),0
Nc1nc(CCC(=O)NCCc2ccc3c(c2)OCO3)cs1,0
OCCn1ccnc1-c1cccc(OCc2ccccc2)c1,0
COC(=O)c1n[nH]c2c1CN(CC1(O)CCCNC1)CC2 (centres undefined),0
Cc1ccsc1-c1cc(-c2scnc2C)nc(N)c1C#N,0
O=C(c1c[nH]nc1C1CCCCC1)N1CCOc2ccc(CO)cc2C1,0
Cc1ccc(-c2cc(C(=O)N3CCc4nc(N)sc4C3)[nH]n2)s1,0
Cn1c(=O)c2c(nc(NCc3ccc4c(c3)OCO4)n2Cc2ccc(Br)cc2)n(C)c1=O,0
Cc1ccc(NC(c2ccccc2)c2nnc(-c3ccccc3)o2)cc1F (centres undefined),0
COc1ccccc1NC(=O)c1cc2ccccc2cc1O,0
Cn1cnc2c1c(=O)n(Cc1ccc(-c3nnc(N)s3)cc1)c(=O)n2C,0

For reference, 5 entries once more:

| compound | PreQ1 |
|---|---|
| `O=C(NCC(O)c1ccccc1C(F)(F)F)c1c[nH]nc1-c1ccccc1` (centres undefined) | 0 |
| `COCc1c(Br)c(C)nc2oc(C(=O)c3cccc(OC)c3)c(N)c12` | 0 |
| `CCN(CCOc1ccc(Cl)cc1)CC1(O)CCCNC1` (centres undefined) | 0 |
| `CC(=O)c1c(C)nn(CC(O)Cn2c3c(c4cc(C)ccc42)CCCC3=O)c1C` (centres undefined) | 0 |
| `OCCn1ccnc1-c1cccc(OCc2ccccc2)c1` | 0 |